Results deposited as PubChem BioAssay AID1259424 (University of Nebraska Medical Center, 2018).

Test: 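Find knockdowns that reproduce the expression shifts seen after KSR1 loss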 (primary screen)
Cell system: human HCT116 colon cancer cells
Reagent: siRNA pool against human genes, 50 nM
Detection: 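Six signature mRNAs by branched-DNA multiplex assay, scaled to two housekeeping genes and non-targeting median, log2; matched to mean KSR1 knockdown profile by Pearson correlation and euclidean distance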
Scale: mean correlation with KSR1 profile: higher = expression change more like KSR1 knockdown; mean distance from KSR1 profile: higher = expression change less like KSR1 knockdown
This is an unselected part of about 14,000 deposited reagents. 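Higher correlation or smaller distance means closer resemblance to KSR1 loss; control wells, including KSR1 knockdowns, recur on many plates.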 Reagents against one gene are numbered here. Further read-outs or replicates are left out here. The record does not give: the time to read-out.

Knock-down of UNC45A (unc-45 myosin chaperone A) gave: mean correlation with KSR1 profile -0.375; mean distance from KSR1 profile 1.76. Silencing of EFHD1 (EF-hand domain family member D1) gave: mean correlation with KSR1 profile 0.643; mean distance from KSR1 profile 1.51. Against GIGYF2 (GRB10 interacting GYF protein 2), the entry reads mean correlation with KSR1 profile 0.0406; mean distance from KSR1 profile 5.49. Silencing of PRSS12 (serine protease 12) gave: mean correlation with KSR1 profile -0.244; mean distance from KSR1 profile 1.92. Against TM9SF1 (transmembrane 9 superfamily member 1) the deposit lists mean correlation with KSR1 profile -0.0307; mean distance from KSR1 profile 1.91. LMTK3 (lemur tail kinase 3) showed mean correlation with KSR1 profile -0.321; mean distance from KSR1 profile 2.67.

With knock-down of BBS10 (Bardet-Biedl syndrome 10) the results were mean correlation with KSR1 profile 0.362; mean distance from KSR1 profile 2.02. With knock-down of KLRK1 (killer cell lectin like receptor K1) the results were mean correlation with KSR1 profile -0.382; mean distance from KSR1 profile 1.79. For UBE2L3 (ubiquitin conjugating enzyme E2 L3), the entry reads mean correlation with KSR1 profile -0.00229; mean distance from KSR1 profile 2.63. Against EXOSC2 (exosome component 2) the deposit lists mean correlation with KSR1 profile -0.397; mean distance from KSR1 profile 3.53. LY9 (lymphocyte antigen 9) showed mean correlation with KSR1 profile -0.335; mean distance from KSR1 profile 2.18. FOXO4 (forkhead box O4) gave mean correlation with KSR1 profile -0.113; mean distance from KSR1 profile 2.8.

Knock-down of HAVCR2 (hepatitis A virus cellular receptor 2) gave: mean correlation with KSR1 profile -0.143; mean distance from KSR1 profile 3.3. ABO gave mean correlation with KSR1 profile -0.0528; mean distance from KSR1 profile 2.38. Knock-down of ZSCAN10 (zinc finger and SCAN domain containing 10) gave: mean correlation with KSR1 profile 0.584; mean distance from KSR1 profile 2.28. Knock-down of DERA (deoxyribose-phosphate aldolase) came out at: mean correlation with KSR1 profile 0.531; mean distance from KSR1 profile 3.41. TRNT1 (tRNA nucleotidyl transferase 1) showed mean correlation with KSR1 profile -0.125; mean distance from KSR1 profile 3.06.

No new results follow: entries from further up.
EFHD1 (EF-hand domain family member D1) → mean correlation with KSR1 profile: 0.643; mean distance from KSR1 profile: 1.51
GIGYF2 (GRB10 interacting GYF protein 2) → mean correlation with KSR1 profile: 0.0406; mean distance from KSR1 profile: 5.49

Continued.
Against PSG4 (pregnancy specific beta-1-glycoprotein 4), the values are mean correlation with KSR1 profile 0.00254; mean distance from KSR1 profile 2.23. Silencing of MVD (mevalonate diphosphate decarboxylase) gave: mean correlation with KSR1 profile 0.488; mean distance from KSR1 profile 2.08. For ARHGAP4 (Rho GTPase activating protein 4) the deposit lists mean correlation with KSR1 profile -0.0785; mean distance from KSR1 profile 1.72. With knock-down of CDK6 (cyclin dependent kinase 6), the screen gave mean correlation with KSR1 profile -0.185; mean distance from KSR1 profile 3.02. With knock-down of SLC12A8, the record shows mean correlation with KSR1 profile 0.549; mean distance from KSR1 profile 2.9. Silencing of LOXL4 (lysyl oxidase like 4) came out at: mean correlation with KSR1 profile 0.527; mean distance from KSR1 profile 1.21.

For PRKACG (protein kinase cAMP-activated catalytic subunit gamma) the deposit lists mean correlation with KSR1 profile -0.151; mean distance from KSR1 profile 3.17. For FOXN3 (forkhead box N3) #1 the deposit lists mean correlation with KSR1 profile 0.0344; mean distance from KSR1 profile 2.33. Silencing of FOXN3 (forkhead box N3) #2 gave: mean correlation with KSR1 profile -0.712; mean distance from KSR1 profile 4.32. With knock-down of TNFSF18 (TNF superfamily member 18), the screen gave mean correlation with KSR1 profile 0.202; mean distance from KSR1 profile 3.35. PRORP (protein only RNase P catalytic subunit) showed mean correlation with KSR1 profile 0.701; mean distance from KSR1 profile 1.02.
